Laboratory results taken from publication PMC6470603, “Design and Synthesis of Matrine Derivatives as Novel Anti-Pulmonary Fibrotic Agents via Repression of the TGFβ/Smad Pathway” (Molecules, 2019).

Tested on: TGF-β1 induced total collagen accumulation in MRC-5 cells
Experiment: Sircol collagen assay: inhibition of TGF-β1-induced total collagen accumulation
Format: cell-based, human
Conditions: for fold more potent than Pirfenidone (anti-fibrotic IC50): collagen accumulation IC50 versus Pirfenidone; for fold more potent than matrine (anti-fibrotic IC50): collagen accumulation IC50 versus matrine
Procedure: Higher SI values indicates better safety profile.
MRC-5 cells in 1 × 10^5 cells/mL density were seeded in TC treated 96-well plates and allowed to reach confluence for 48 h. The cells were then starved using MEM-NEAA containing 0.2% BSA for 24 h. After starvation, the medium was changed to MEM-NEAA supplemented with 0.2% BSA, 100 μM L-Proline, 100 μM Ascorbic acid, with or without 10 ng/mL TGF-β1 (Peprotech) in the presence of vehicle or different concentrations of compounds. After 48 h incubation, the MRC-5 cells were washed with phosphate buffered saline (PBS) and fixed in −20 °C precooled methanol for 10 min. The cells were than washed with PBS before incubation in 0.1% PSR staining solution (0.1% Sirus red in saturated water solution of picric acid) for 1 h. The staining solution was then removed and the cells were washed with 0.1% acetic acid for three times. 200 μL of 0.1 mol/L sodium hydroxide solution were added to each well and the plates were placed on a rocking platform for 1 h. The optical density (OD) values at 550 nm were determined with an Infinite 2000 spectrophotometer.

Row | SMILES | fold more potent than Pirfenidone (anti-fibrotic IC50) | fold more potent than matrine (anti-fibrotic IC50)
1 | O=C1CC(n2ccc3c([N+](=O)[O-])cccc32)C[C@@H]2[C@H]3CCCN4CCC[C@@H](CN12)[C@@H]34 (stereo partly drawn) [3d, 13-(4-nitro-1H-indol-1-yl)-matrine] | 307 fold | 204 fold
2 | O=C1CC(n2ccc3cc(Cl)ccc32)CC2C3CCCN4CCCC(CN12)C34 (stereo not drawn) [3f, 13-(5-chloro-1H-indol-1-yl)-matrine] | 400 fold | 266 fold
3 | O=C1CC(n2ccc3cc(Br)ccc32)C[C@@H]2[C@H]3CCCN4CCC[C@@H](CN12)[C@@H]34 (stereo partly drawn) [3g, 13-(5-bromo-1H-indol-1-yl)-matrine] | 203 fold | 135 fold
